Source: patent US20160257755A1 (TRACON PHARMACEUTICALS, published 2016)
Positions count from the first letter of the chain named. Results are given in words; binding and its absence hold for the method and conditions named. Some entries that bind do so weakly or less than the wild type. Blank lines part the entries; values can stand above or below the binder they belong to.

Target: T1, human CD105 (endoglin), R&D Systems Cat. No. 1097-EN (human) (UniProt P17813)
T1 sequence (looked up): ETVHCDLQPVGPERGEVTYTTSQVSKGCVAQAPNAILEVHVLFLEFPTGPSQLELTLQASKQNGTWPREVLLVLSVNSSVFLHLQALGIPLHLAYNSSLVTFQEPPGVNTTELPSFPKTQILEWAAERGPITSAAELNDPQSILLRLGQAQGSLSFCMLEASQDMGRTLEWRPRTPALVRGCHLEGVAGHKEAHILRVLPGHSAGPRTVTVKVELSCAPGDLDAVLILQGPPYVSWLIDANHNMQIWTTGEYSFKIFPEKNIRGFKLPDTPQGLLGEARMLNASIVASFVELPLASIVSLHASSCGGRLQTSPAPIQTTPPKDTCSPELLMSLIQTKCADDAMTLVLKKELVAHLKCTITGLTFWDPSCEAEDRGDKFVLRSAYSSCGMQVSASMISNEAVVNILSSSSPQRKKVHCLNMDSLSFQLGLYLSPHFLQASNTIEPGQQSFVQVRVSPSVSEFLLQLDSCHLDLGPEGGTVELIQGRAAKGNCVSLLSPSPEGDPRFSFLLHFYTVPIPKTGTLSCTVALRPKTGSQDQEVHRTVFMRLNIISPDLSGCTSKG
Assay: competition ELISA on captured human CD105 against biotinylated chimeric anti-CD105 (6.25 ng/ml); streptavidin-HRP/TMB, absorbance at 450 nm

- binding: binds
B1: VK2AAVH1A2 (antibody, V domains shown)
VH: EVQLVESGGGLVKPGGSLRLSCAASGFTFSDAWMDWVRQAPGKGLEWVGEARSKASNHATYYAESVKGRFTISRDDSKNTLYLQMNSLKTEDTAVYYCTRWRRFFDSWGQGTLVTVSS
VL: DIQLTQSPSSLSASVGDRATITCRASSSVSYMHWYQQKPGKAPKPWAYATSNLASGVPSRFSGSGSGTDYTLTISSLQPEDFATYYCQQWSSNPLTFGGGTKVEIK

- binding: binds
B2: VK2SAVH1A (antibody, V domains shown)
VH: B1 VH with G49A, A51I
VL: B1 VL with A19V, T22S
